PubChem BioAssay AID652259, Drosophila RNAi Screening Center | 2013
The screen tested about 22,000 reagents; this is an unselected part of those with a known target gene and a result. Over the whole deposit, 233 (1.1%) got an active call. 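Light values are raw, unnormalised plate reads; the ratio scores behind the reporter calls were not deposited.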 A plus sign joins genes that one reagent is predicted to hit. The record does not give: the amount of reagent, the time to read-out, the dose of the treatment.

Purpose: 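Genome-wide hunt for genes that control Wingless pathway activity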 (primary screen)
System: Drosophila clone 8 imaginal disc epithelial cells
Reagent: long dsRNA against Drosophila genes
Treatment: pathway stimulated by co-transfected Wingless expression plasmid
Read-out: 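Dual luciferase reads per well after Wingless plasmid stimulation: reporter firefly light and Renilla control light; activity is firefly divided by Renilla, a ratio not deposited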
Reading the numbers: firefly reporter light: higher = more Wg reporter light, before normalisation; Renilla control light: higher = more transfected or surviving cells
Active means: 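a knock-down is a candidate when at least two out of four statistical tests show it departing from its plate mean; one test alone signals a weak candidate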
Meaning of the calls: active = candidate regulator (raises or lowers reporter); inactive = not a candidate

Gene | amplicon | reporter change call, replicate 1 | firefly reporter light, replicate 1 | firefly reporter light, replicate 2 | Renilla control light, replicate 1 | Renilla control light, replicate 2 | activity call
CG30283 | DRSC04071 | – | 1815 | 8261 | 793 | 2984 | inactive
HPS4 (Hermansky-Pudlak Syndrome 4) | DRSC06906 | – | 3901 | – | 2406 | – | inactive
Lsp2 (Larval serum protein 2) | DRSC09841 | – | 7091 | – | 2900 | – | inactive
Lsp2 (Larval serum protein 2) | DRSC11216 | – | 8125 | – | 2553 | – | inactive
CG5139 | DRSC00681 | – | 3872 | 9896 | 1624 | 4084 | inactive
CG7423 | DRSC20044 | – | 18723 | – | 9706 | – | inactive
Plap (Phospholipase A2 activator protein) | DRSC00678 | – | 7570 | – | 4711 | – | inactive
Cec-Psi1 (Cecropin pseudogene 1) | DRSC21956 | – | 6.11e5 | 6.59e5 | 2.27e5 | 2.49e5 | inactive
CG33964 + CG13175 | DRSC06300 | – | 4612 | – | 2381 | – | inactive
CG33964 + CG13175 | DRSC06301 | – | 4496 | – | 1672 | – | inactive
CG33964 + CG13175 | DRSC07184 | – | 6544 | – | 2597 | – | inactive
Mccc1 (Methylcrotonoyl-CoA carboxylase 1) | DRSC15417 | – | 4460 | 8791 | 1232 | 2928 | inactive
Abl (Abl tyrosine kinase) | DRSC09661 | – | 8652 | – | 3328 | – | inactive
CG2127 | DRSC06821 | – | 1906 | 6696 | 612 | 2449 | inactive
blot (bloated tubules) | DRSC09485 | – | 3201 | – | 1273 | – | inactive
blot (bloated tubules) | DRSC11328 | – | 5958 | – | 2177 | – | inactive
CG5050 | DRSC02807 | – | 2433 | 7521 | 1339 | 3457 | inactive
CG3226 | DRSC18296 | – | 3654 | 10963 | 1129 | 4115 | inactive
CG32726 | DRSC17521 | – | 3216 | – | 1240 | – | inactive
mod(mdg4) + pre-mod(mdg4)-U | DRSC13476 | – | 3904 | – | 1696 | – | inactive
CG43146 (retired record) | DRSC09254 | – | 3552 | – | 1513 | – | inactive
CG32694 | DRSC17844 | – | 13898 | – | 6381 | – | inactive
CG32694 | DRSC17855 | – | 17701 | – | 10667 | – | inactive
CG32694 | DRSC22670 | – | 3.67e5 | 4.23e5 | 1.36e5 | 1.05e5 | inactive
CG1847 | DRSC19810 | – | 2616 | 4612 | 859 | 1776 | inactive
CG8192 | DRSC07101 | Wg reporter activity raised | 42266 | – | 2217 | – | active
Ppt2 (Palmitoyl-protein Thioesterase 2) | DRSC02786 | – | 9421 | – | 2922 | – | inactive
Pisd (Phosphatidylserine decarboxylase) | DRSC15935 | – | 2073 | 6173 | 1168 | 1842 | inactive
Or24a (Odorant receptor 24a) | DRSC00768 | – | 4180 | 7061 | 1651 | 2247 | inactive
CG15554 | DRSC15092 | – | 5702 | – | 2838 | – | inactive
Fbl6 (F-box and leucine-rich repeat protein 6) | DRSC06335 | – | 12464 | – | 2208 | – | inactive
CG33296 | DRSC00998 | – | 14016 | – | 6388 | – | inactive
CG9673 | DRSC20202 | – | 19895 | – | 12595 | – | inactive
CG1172 + Or83a | DRSC12357 | – | 15352 | – | 4602 | – | inactive
Mhc (Myosin heavy chain) | DRSC03367 | – | 3293 | 5948 | 918 | 3304 | inactive
Or22c (Odorant receptor 22c) | DRSC00766 | – | 2087 | 5515 | 871 | 2474 | inactive
ClpX (Caseinolytic protease chaperone subunit) | DRSC15592 | – | 1917 | 3300 | 859 | 1480 | inactive
CG10725 | DRSC09788 | – | 6299 | – | 2604 | – | inactive
CG34408 | DRSC17733 | – | 3376 | 6634 | 1019 | 2492 | inactive
CG34408 | DRSC21926 | – | 6.20e5 | 6.23e5 | 77271 | 97477 | inactive
Pdk (Pyruvate dehydrogenase kinase) | DRSC07504 | – | 7216 | – | 2177 | – | inactive
mRpL43 (mitochondrial ribosomal protein L43) | DRSC04508 | – | 4227 | 9896 | 1176 | 4024 | inactive
mRpL43 (mitochondrial ribosomal protein L43) | DRSC22571 | – | 5.49e5 | 5.46e5 | 2.39e5 | 96308 | inactive
CG11089 + CG31381 | DRSC13690 | – | 3442 | – | 1392 | – | inactive
CG11089 + CG31381 | DRSC14290 | – | 1818 | 4848 | 1277 | 1616 | inactive
CG10035 | DRSC14177 | – | 14968 | – | 3120 | – | inactive
BckdhA (Branched chain keto acid dehydrogenase E1 subunit alpha) | DRSC16395 | – | 10416 | – | 2311 | – | inactive
CheB38b (Chemosensory protein B 38b) | DRSC22874 | – | 7.60e5 | 6.18e5 | 3.27e5 | 360 | inactive
CatB (Catalase B) | DRSC03194 | – | 7940 | – | 2553 | – | inactive
ND-B22 (NADH dehydrogenase (ubiquinone) B22 subunit) | DRSC03193 | – | 3382 | 9577 | 1104 | 3221 | inactive
Ski6 | DRSC02491 | – | 4845 | 7532 | 1559 | 3174 | inactive
AttC (Attacin-C) | DRSC06886 | – | 5997 | – | 2502 | – | inactive
Hmu (Hemomucin) | DRSC16705 | – | 4812 | – | 3126 | – | inactive
CG34427 | DRSC09978 | – | 1514 | 4896 | 1122 | 2134 | inactive
dpr6 (defective proboscis extension response 6) | DRSC09005 | – | 2821 | – | 1530 | – | inactive
dpr6 (defective proboscis extension response 6) | DRSC10162 | – | 8390 | – | 3618 | – | inactive
dpr6 (defective proboscis extension response 6) | DRSC10163 | – | 6490 | – | 1904 | – | inactive
CG7988 | DRSC16358 | – | 13497 | – | 2544 | – | inactive
CG16756 | DRSC18115 | – | 14000 | – | 11241 | – | inactive
Caf1-105 (Chromatin assembly factor 1, p105 subunit) | DRSC06209 | – | 2645 | 8674 | 556 | 2557 | inactive
MED24 (Mediator complex subunit 24) | DRSC10944 | Wg reporter activity lowered | 907 | 4960 | 1557 | 3546 | inactive
CAH5 (Carbonic anhydrase 5) | DRSC15372 | – | 6944 | – | 3018 | – | inactive
nonA-l (nonA-like) | DRSC17017 | – | 10941 | – | 2648 | – | inactive
CG7741 | DRSC07035 | – | 10592 | – | 4294 | – | inactive
CG12909 | DRSC06224 | – | 2593 | 6441 | 609 | 2432 | inactive
CG14662 + asRNA:CR43478 | DRSC12248 | – | 14469 | – | 3840 | – | inactive
Ugt37D1 (UDP-glycosyltransferase family 37 member D1) | DRSC02645 | – | 1908 | 5978 | 964 | 2787 | inactive
CG32847 | DRSC22901 | – | 4.33e5 | 3.90e5 | 1.90e5 | 1.28e5 | inactive
Dab (Disabled) | DRSC11140 | – | 8048 | – | 3971 | – | inactive
CG4467 | DRSC15585 | – | 21045 | – | 18186 | – | inactive
NdufA3 (NADH:ubiquinone oxidoreductase subunit A3) | DRSC18431 | – | 16739 | – | 11282 | – | inactive
CG13449 | DRSC09996 | – | 7872 | – | 3276 | – | inactive
Sodh1 (Sorbitol dehydrogenase 1) | DRSC12605 | – | 7269 | – | 2685 | – | inactive
